Reference: PubChem BioAssay AID1224828 (NIAID, 2016)
The whole screen tested about 17,000 reagents; below is a part drawn at random. 762 of all reagents (4.5%) were called active. 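Active calls include both raised and lowered p65 entry, mostly lowered; wells with fewer than 50 cells lack a z-score.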 Raw values are not corrected between plates.

- Assay: 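Regulators linking TLR4 signalling to p65 nuclear translocation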 (primary screen)
- Cells: mouse RAW264.7 G9 macrophage reporter cells (GFP-p65, Tnf promoter-mCherry)
- Knock-down reagent: siRNA pool against mouse genes, 100 nM
- Time to read-out: 2 days siRNA transfection, then 40 min LPS before fixation
- Conditions: LPS (Salmonella minnesota R595) at 10 ng/ml
- Detection: 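Imaged p65 nuclear translocation ratio, normalised to the plate median, converted to robust z-scores and averaged across two replicates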
- Direction: p65 translocation robust z-score: higher = more nuclear NF-kappaB p65 after LPS than the plate median; nuclear/cytoplasmic p65 ratio: higher = more nuclear NF-kappaB p65
- Active means: 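Active if robust z is above 3.3 (negative regulators) or below -1.56, the Tlr4 control median (positive regulators); activity score 50 or more; control wells not called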
- Meaning of the calls: active = hit (p65 shift raised or lowered); inactive = no clear change

{"target gene": "Pim1 (Pim1, proto-oncogene, serine/threonine kinase)", "p65 translocation robust z-score": 0.02, "nuclear/cytoplasmic p65 ratio, rep 1": 1.66, "nuclear/cytoplasmic p65 ratio, rep 2": 1.4, "low cell count flag": "enough cells to score", "Call": "inactive"}
{"target gene": "Ttc41 (tetratricopeptide repeat domain 41)", "p65 translocation robust z-score": 0.12, "nuclear/cytoplasmic p65 ratio, rep 1": 1.64, "nuclear/cytoplasmic p65 ratio, rep 2": 1.81, "low cell count flag": "enough cells to score", "Call": "inactive"}
{"target gene": "Ret (ret proto-oncogene)", "p65 translocation robust z-score": -1.21, "nuclear/cytoplasmic p65 ratio, rep 1": 1.48, "nuclear/cytoplasmic p65 ratio, rep 2": 1.24, "low cell count flag": "enough cells to score", "Call": "inactive"}
{"target gene": "Brca1 (breast cancer 1, early onset)", "p65 translocation robust z-score": -0.73, "nuclear/cytoplasmic p65 ratio, rep 1": 1.68, "nuclear/cytoplasmic p65 ratio, rep 2": 1.49, "low cell count flag": "enough cells to score", "Call": "inactive"}
{"target gene": "Anxa11 (annexin A11)", "p65 translocation robust z-score": -0.19, "nuclear/cytoplasmic p65 ratio, rep 1": 1.59, "nuclear/cytoplasmic p65 ratio, rep 2": 1.59, "low cell count flag": "enough cells to score", "Call": "inactive"}
{"target gene": "Ywhaz", "p65 translocation robust z-score": -0.39, "nuclear/cytoplasmic p65 ratio, rep 1": 1.46, "nuclear/cytoplasmic p65 ratio, rep 2": 1.44, "low cell count flag": "enough cells to score", "Call": "inactive"}
{"target gene": "Herc4 (hect domain and RLD 4)", "p65 translocation robust z-score": -0.02, "nuclear/cytoplasmic p65 ratio, rep 1": 1.57, "nuclear/cytoplasmic p65 ratio, rep 2": 1.65, "low cell count flag": "enough cells to score", "Call": "inactive"}
{"target gene": "Rwdd2b (RWD domain containing 2B)", "p65 translocation robust z-score": 0.95, "nuclear/cytoplasmic p65 ratio, rep 1": 1.57, "nuclear/cytoplasmic p65 ratio, rep 2": 1.23, "low cell count flag": "enough cells to score", "Call": "inactive"}
{"target gene": "Trim24 (tripartite motif-containing 24)", "p65 translocation robust z-score": 0.43, "nuclear/cytoplasmic p65 ratio, rep 1": 1.61, "nuclear/cytoplasmic p65 ratio, rep 2": 1.52, "low cell count flag": "enough cells to score", "Call": "inactive"}
{"target gene": "Or4k49 (olfactory receptor family 4 subfamily K member 49)", "p65 translocation robust z-score": -1.22, "nuclear/cytoplasmic p65 ratio, rep 1": 1.42, "nuclear/cytoplasmic p65 ratio, rep 2": 1.08, "low cell count flag": "enough cells to score", "Call": "inactive"}
{"target gene": "Or6c206 (olfactory receptor family 6 subfamily C member 206)", "nuclear/cytoplasmic p65 ratio, rep 1": 1.33, "nuclear/cytoplasmic p65 ratio, rep 2": 1.15, "low cell count flag": "fewer than 50 cells per well; well left out of scoring", "Call": "inactive"}
{"target gene": "Mix23 (mitochondrial matrix import factor 23)", "p65 translocation robust z-score": -0.15, "nuclear/cytoplasmic p65 ratio, rep 1": 1.48, "nuclear/cytoplasmic p65 ratio, rep 2": 1.77, "low cell count flag": "enough cells to score", "Call": "inactive"}

As entered above:
Result for Brca1 (breast cancer 1, early onset) under “low cell count flag”: enough cells to score
For “nuclear/cytoplasmic p65 ratio, rep 2”, Pim1 (Pim1, proto-oncogene, serine/threonine kinase) is entered as 1.4
